36 molecules from the supplement of paper PMC4683952 can be followed below.

Structures can show the parent of a compound that is named as a salt. About 50 (4%) of roughly 1,200 compounds showed activity. Cut-off read from the data, not from the text of the source: all actives reach 1.3 or more but so do some inactives. Some of the results follow.

This assay has as its system Lgr5 (MarsCy1-Lgr5-EGFP, U2OS). Nature of the assay: cell-surface Lgr5 expression (SCi1 fluorescence, background-subtracted) relative to WT DMSO (fold of DMSO control); higher = more Lgr5 at the plasma membrane, active = hit call of the paper. To be noted: U2OS MarsCy1-Lgr5-EGFP stable; treatment time: overnight; 16 µM; library: Johns Hopkins Clinical Compound Library.
As for `Cc1cc(O)c(C(=O)N[C@@H](C(=O)N[C@@H]2C(=O)N3C(C(=O)O)=C(CSc4nnnn4C)CS[C@H]23)c2ccc(O)cc2)cn1` [Cefpiramide], the “cell-surface Lgr5 expression” value is inactive: 0.869. The value for `CO[C@H]1/C=C/O[C@@]2(C)Oc3c(C)c(O)c4c(O)c(c5c(nc6cc(C)ccn65)c4c3C2=O)NC(=O)/C(C)=C\C=C\[C@H](C)[C@H](O)[C@@H](C)[C@@H](O)[C@@H](C)[C@H](OC(C)=O)[C@@H]1C` [Rifaximin] was inactive: 1.08. On to `Clc1cccc(Cl)c1NC1=NCCN1` [Clonidine], for which the “cell-surface Lgr5 expression” value was inactive: 0.984.

As to `CCCCCCCCCCCCCCCC(=O)OC[C@H](O)[C@H]1OC(=O)C(O)=C1O` [Ascorbic acid 6-palmitate], the “cell-surface Lgr5 expression” value was inactive: 1.15. For `NCCCCCC(=O)O` [6-Aminocaproic acid], the “cell-surface Lgr5 expression” value was inactive: 1.21. As for `CN(C)C(=N)NC(=N)N` [Metformin (1,1-Dimethylbiguanide hydrochloride)], the “cell-surface Lgr5 expression” value was inactive: 1.07.

Consider `CC=CC(=O)N(CC)c1ccccc1C` [Crotamiton (N-ethyl-o-crotonotoluidine)], for which the “cell-surface Lgr5 expression” value was inactive: 1.22.

Consider `CCCCCO` [1-Pentanol], for which the “cell-surface Lgr5 expression” value is inactive: 1.05. The value for `O=C1Nc2ccc(Cl)cc2[C@@](C#CC2CC2)(C(F)(F)F)O1` [Efavirenz] was inactive: 0.949; that for `Cc1ncc(CO)c(CN)c1O` [Pyridoxamine, Dihydrochloride] was inactive: 1.02. For `Cc1ncc(CO)c(CN)c1O` [Pyridoxamine dihydrochloride], the “cell-surface Lgr5 expression” value is inactive: 0.999. Under `O=C(O)c1ccccc1Nc1cccc(C(F)(F)F)c1` [Flufenamic acid] stands inactive: 1.19; under `Clc1ccc(C(c2ccccc2Cl)C(Cl)Cl)cc1` (stereo unspecified), inactive: 1.23. With `O=C1O[C@H]([C@@H](O)CO)C(O)=C1O` [Ascorbic acid], the “cell-surface Lgr5 expression” value was inactive: 0.81. Under `CSCC[C@H](NC(=O)[C@H](CO)NC(=O)[C@H](Cc1ccc(O)cc1)NC(=O)[C@@H](N)CO)C(=O)N[C@@H](CCC(=O)O)C(=O)N[C@@H](Cc1cnc[nH]1)C(=O)N[C@@H](Cc1ccccc1)C(=O)N[C@@H](CCCNC(=N)N)C(=O)N[C@@H](Cc1c[nH]c2ccccc12)C(=O)NCC(=O)N[C@@H](CCCCN)C(=O)N1CCC[C@H]1C(=O)N[C@H](C(=O)NCC(=O)N[C@@H](CCCCN)C(=O)N[C@@H](CCCCN)C(=O)N[C@@H](CCCNC(=N)N)C(=O)N[C@@H](CCCNC(=N)N)C(=O)N1CCC[C@H]1C(=O)N[C@H](C(=O)N[C@@H](CCCCN)C(=O)N[C@H](C(=O)N[C@@H](Cc1ccc(O)cc1)C(=O)N1CCC[C@H]1C(=O)N[C@@H](CC(N)=O)C(=O)NCC(=O)N[C@@H](C)C(=O)N[C@@H](CCC(=O)O)C(=O)N[C@@H](CC(=O)O)C(=O)N[C@@H](CCC(=O)O)C(=O)N[C@@H](CO)C(=O)N[C@@H](C)C(=O)N[C@@H](CCC(=O)O)C(=O)N[C@@H](C)C(=O)N[C@@H](Cc1ccccc1)C(=O)N1CCC[C@H]1C(=O)N[C@@H](CC(C)C)C(=O)N[C@@H](CCC(=O)O)C(=O)N[C@@H](Cc1ccccc1)C(=O)O)C(C)C)C(C)C)C(C)C` [Corticotropin A (Adrenocorticotropic hormone)] stands inactive: 0.747.

Take `Nc1ccc(/N=N/c2ccccc2)c(N)n1` [Phenazopyridine]: the “cell-surface Lgr5 expression” value is inactive: 1.09. Under `CCc1cc(Cl)c(OC)c(C(=O)NC[C@@H]2CCCN2CC)c1O` [Eticlopride hydrochloride (S)] stands active: 1.52. As to `CN(C)CCOC(=O)C(c1ccccc1)C1(O)CCCC1` (stereo unspecified) [Cyclopentolate hydrochloride], the “cell-surface Lgr5 expression” value was inactive: 1.09.

Consider `Nc1nc(/C(=C/CC(=O)O)C(=O)N[C@@H]2C(=O)N3C(C(=O)O)=CCS[C@H]23)cs1` [Ceftibuten], for which the “cell-surface Lgr5 expression” value is inactive: 0.828. For the molecule `C[N+](C)(CCOc1ccccc1)Cc1ccccc1.O=C([O-])c1cc2ccccc2cc1O` [Bephenium hydroxy-naphthoate], the “cell-surface Lgr5 expression” value is inactive: 1.05. Under `Cc1nc2c([nH]1)c(=O)n(C)c(=O)n2Cc1ccco1` [Furafylline] stands inactive: 1.07; under `CC(NCCc1ccc(O)cc1)C(O)c1ccc(O)cc1` (stereo unspecified) [Ritodrine], inactive: 1.26. Under `O=S(=O)([O-])[O-].[Cu+2]` [Copper (II) sulfate] stands inactive: 1.27; under `NC1CCN(c2c(F)cc3c(=O)c(C(=O)O)cn(C4CC4)c3c2Cl)C1` (stereo unspecified) [Clinafloxacin HCl], inactive: 0.853. Under `CCC1(C)CC(=O)NC1=O` (stereo unspecified) [Ethosuximide] stands inactive: 0.645; under `O=[N+]([O-])c1ccc(O)c2ncccc12` [Nitroxoline (8-hydroxy 5-nitroquinoline)], inactive: 0.36; under `CC(O)(CC(=O)O)CC(=O)O` [Meglutol (3-Hydroxy-3-methylglutaric acid)], inactive: 1.25. In the case of `O=P([O-])([O-])[O-].O=P([O-])([O-])[O-].O=P([O-])([O-])[O-].[Ca+2].[Ca+2].[Ca+2].[Ca+2].[Ca+2].[OH-]` [Durapatite (Hydroxyapatite)], the “cell-surface Lgr5 expression” value is inactive: 0.922.

Turning to `CN1CCN2c3ccccc3Cc3ccccc3C2C1` (stereo unspecified) [Mianserin], the “cell-surface Lgr5 expression” value is inactive: 1.19. The value for `N[C@@H](Cc1ccc(O)c(O)c1)C(=O)O` [Levodopa (L-beta-3,4-Dihydroxyphenylananine)] was inactive: 0.449; that for `CN(C)CCc1c[nH]c2ccc(CS(=O)(=O)N3CCCC3)cc12` [Almotriptan] was inactive: 0.669. Under `CCC(=O)[O-].CCC(=O)[O-].[Ca+2]` [Calcium propionate] stands inactive: 1; under `O=C(NC(Cc1cc(=O)[nH]c2ccccc12)C(=O)O)c1ccc(Cl)cc1` (stereo unspecified) [Rebamipide], inactive: 1.11; under `C[N+](C)(C)CCOC(N)=O` [Carbachol (Carbamylcholine chloride)], inactive: 1.18. Under `CC(C)(C)NC[C@H](O)COc1cccc2c1CCCC2=O` [Levobunolol, HCl (-)] stands inactive: 0.705. Turning to `Cc1nc2sccn2c(=O)c1CCN1CCC(=C(c2ccc(F)cc2)c2ccc(F)cc2)CC1` [Ritanserin], the “cell-surface Lgr5 expression” value was inactive: 1.15.
